The results in this text go back to paper PMC4202136.

Chains of the proteins cited; added tags and fusions are not shown. Lines headed by an entry give the natural chain unless they say otherwise; changes in a name come on top.
UniProt P16220: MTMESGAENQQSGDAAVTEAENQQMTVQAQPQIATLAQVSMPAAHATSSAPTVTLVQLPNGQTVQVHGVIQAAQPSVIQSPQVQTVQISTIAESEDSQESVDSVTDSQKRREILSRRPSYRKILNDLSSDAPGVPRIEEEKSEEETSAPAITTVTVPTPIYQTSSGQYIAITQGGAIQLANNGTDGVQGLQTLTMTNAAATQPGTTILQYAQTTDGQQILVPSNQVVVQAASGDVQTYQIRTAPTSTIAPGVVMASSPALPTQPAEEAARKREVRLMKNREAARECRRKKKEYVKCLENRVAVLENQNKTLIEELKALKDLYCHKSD

For at least one entry, the source does not settle the construct or the ends of the probe. At least one result comes from cells or an extract, where the contact may be indirect.

The data set has as its target CREB (UniProt P16220). The data set can be described thus: EMSA, supershift, cold self-competition (50-fold). Particulars: A549 nuclear extract, binding markedly increased in shHMGB1 versus shControl cells; 10 mM Tris pH 8.0, 150 mM KCl, 2 mM EDTA, 10 mM MgCl2, 10 mM DTT, 0.1% BSA, 20% glycerol, 1 ug poly(dI-dC), 4 ug nuclear protein, room temperature 50 min; protein in an extract; label: 3' biotin. (A gel shift assay detects complexes by their altered migration in electrophoresis.)

For the sequence “ACATGAATTTACGCAACAAAAATA (double strand) [CREB probe (nwasp promoter)]”, the binding result is “binds”.
